{
  "source": "PubChem BioAssay AID504444",
  "about": "(National Center for Advancing Translational Sciences (NCATS), 2011)",
  "note": "Several values for one entry are separate records, joined by “and”; a condition that tells them apart may be missing. Identical values can stand only once. The campaign covered roughly 360,000 compounds. About 7,500 (2.1%) were called active. Inconclusive results, whose numbers are uncertain, are shown with a selection of clear calls. Calls come from the whole dose curve; as a rule, active = well fitted inhibition curve with a large enough effect; inconclusive = small, poorly fitted or top-dose-only effect, or effect the other way; inactive = flat fitted curve, though single readings scatter. Where the call is inconclusive, the potency comes from a doubtful curve fit. Potency is the fitted concentration of half-maximal effect.",
  "data": [
    {"assay": "Nrf2 qHTS screen for inhibitors; note: nearly all actives have a fitted effect of over 60% in size", "settings": "A549 ARE-Fluc reporter, luciferase luminescence, 18-24 h; series mostly up to 46 µM", "in_short": "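Two sequential reads on A549 ARE_Fluc cells exposed to compound for 18-24 h: a CellTiter-Fluor fluorescence read for viability, then a luciferase luminescence read for Nrf2/ARE activity.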", "values": [
      {"compound": "CCOc1ccc2nc(SCC(=O)Nc3ccc4c(c3)OCO4)sc2c1", "Potency": "inconclusive: 29.1 µM [falling, single point]"},
      {"compound": "S=C(Nc1ccc(Cl)cc1Cl)NC1CCN(Cc2ccccc2)CC1", "Potency": "inconclusive: 32.6 µM [falling, partial curve, poor fit]"},
      {"compound": "CCOC(=O)c1ccccc1NC(=O)CN1C(=O)CC(c2ccccc2)Sc2ccccc21", "note": "(stereo not given)", "Potency": "inconclusive: 29.1 µM [falling, single point]"},
      {"compound": "Cc1cc(-c2ccc(S(=O)(=O)Nc3ccc(C#N)cc3)s2)on1", "Potency": "inconclusive: 18.4 µM [falling, partial curve, poor fit]"},
      {"compound": "CC(C)N1CCC(=NNc2ccc([N+](=O)[O-])cc2S(=O)(=O)N2CCOCC2)CC1", "Potency": "inconclusive: 6.51 µM [falling, single point]"},
      {"compound": "N/C(=N\\OC(=O)c1cccc(Cl)c1)c1cccnc1", "Potency": "inconclusive: 14.6 µM [activator, partial curve, poor fit]"},
      {"compound": "COc1ccc(-c2c(C(F)(F)F)[nH]n3c(=O)cc(-c4ccccc4)nc23)cc1", "Potency": "inactive"},
      {"compound": "CC1(C)CC(=O)C(C=Nc2ccc3cn[nH]c3c2)=C(O)C1", "Potency": "inconclusive: 0.517 µM [falling, full curve, poor fit]"},
      {"compound": "O=C1c2ccccc2C(=O)N1CCc1csc(-c2ccc(F)cc2)n1", "Potency": "inconclusive: 7.31 µM [falling, partial curve]"},
      {"compound": "Cc1ccc(C(=O)Nc2ccc(C(=O)O)cc2)cc1S(=O)(=O)N1CCC(C)CC1", "Potency": "inconclusive: 32.6 µM [falling, single point]"},
      {"compound": "COc1ccc(C(=O)Nc2ccc(N3CCCCCC3)cc2)cc1S(=O)(=O)N1CCOCC1", "Potency": "active: 13 µM"},
      {"compound": "Cn1c(-c2ccc3ccccc3n2)nc2cnccc21", "Potency": "inconclusive: 7.31 µM [activator, partial curve]"},
      {"compound": "CCc1cccc(NS(=O)(=O)c2cccc3cccnc23)c1", "Potency": "inconclusive: 14.6 µM [falling, partial curve]"},
      {"compound": "O=C(COc1ccccc1)Nc1cccc(-c2nc3ccccc3[nH]2)c1", "Potency": "inconclusive: 16.4 µM [activator, partial curve]"},
      {"compound": "CCN(CC)c1nn2c(=O)c(C(=O)NCCc3ccccc3C)cnc2s1", "Potency": "inconclusive: 29.1 µM [falling, single point]"},
      {"compound": "Cc1cc(/C=N/NC(=O)c2cccs2)c(C)n1-c1ccccc1", "Potency": "inconclusive: 0.259 µM [activator, full curve, poor fit]"},
      {"compound": "O=C(Nc1cc2c3c(c1)CC(=O)N3CCC2)c1ccc(Cl)cc1", "Potency": "inconclusive: 13 µM [falling, partial curve, poor fit]"},
      {"compound": "Cc1cccc(CN2CCN(CC(=O)NCCc3ccc(Cl)cc3)C2=O)c1", "Potency": "inconclusive: 32.6 µM [falling, single point]"},
      {"compound": "Cc1c(C(=O)Nc2ccc(Oc3ccccc3)cc2)sc2nc3n(c(=O)c12)CCC3", "Potency": "inconclusive: 25.9 µM [falling, single point]"},
      {"compound": "Cn1nnnc1Sc1ncnc2scc(-c3ccccc3)c12", "Potency": "inconclusive: 29.1 µM [falling, single point] and inconclusive: 25.9 µM [falling, single point]"},
      {"compound": "CC(C)Sc1nc2ccc(Br)cc2[nH]1", "Potency": "inconclusive: 6.51 µM [falling, single point]"},
      {"compound": "COc1ccc(/C=N/OCc2ccccc2C#N)c(OC)c1", "Potency": "inconclusive: 18.4 µM [activator, single point]"},
      {"compound": "COc1cccc(C2Nc3ccccc3C(=O)N2c2ccc(F)cc2)c1O", "note": "(stereo not given)", "Potency": "inconclusive: 7.31 µM [activator, partial curve, poor fit]"},
      {"compound": "O=C(Nc1ccc2oc(=O)ccc2c1)c1cccnc1", "Potency": "inconclusive: 0.184 µM [falling, full curve]"},
      {"compound": "Cc1sc2ncnc(SCC(=O)N3CCCC3)c2c1C", "Potency": "inconclusive: 0.92 µM [activator, full curve, poor fit]"},
      {"compound": "CCOc1ccc(NC(=O)c2cc3c(=O)n(C)c4ccccc4c3n2C)cc1", "Potency": "inconclusive: 6.51 µM [falling, single point]"},
      {"compound": "CCCOc1ccccc1C(=O)N(Cc1cccc(Br)c1)C1CCS(=O)(=O)C1", "note": "(stereo not given)", "Potency": "inconclusive: 9.2 µM [falling, partial curve]"},
      {"compound": "Cc1cc(C)c(NC(=O)c2oc3c(c2C)-c2[nH]ncc2CC3)c(C)c1", "Potency": "inconclusive: 16.4 µM [falling, partial curve]"},
      {"compound": "Nc1ccc(C(=O)Nc2nccs2)cc1", "Potency": "inconclusive: 1.84 µM [activator, full curve]"},
      {"compound": "CN(CC(=O)Nc1ccccc1Br)C(=O)CNC(=O)c1ccc(Oc2ccccc2)cc1", "Potency": "inconclusive: 16.4 µM [falling, single point]"},
      {"compound": "CCCCC(=O)Nc1ccnc(-c2cccnc2)n1", "Potency": "inconclusive: 16.4 µM [falling, partial curve, poor fit]"},
      {"compound": "COc1ccc(/C=N/Nc2ccc([N+](=O)[O-])cc2)cc1Cn1cc([N+](=O)[O-])cn1", "Potency": "inconclusive: 18.4 µM [falling, partial curve, poor fit]"},
      {"compound": "CCN(CC(=O)Nc1ccc(NC(C)=O)cc1)C(=O)CCCc1nc2ccccc2s1", "Potency": "inactive"},
      {"compound": "COc1ccc(C2=NOC(C(=O)NCc3cccs3)C2)cc1", "note": "(stereo not given)", "Potency": "inconclusive: 23.1 µM [activator, single point]"},
      {"compound": "CCCCCSc1nnc2c(n1)[nH]c1c(C)cccc12", "Potency": "inconclusive: 18.4 µM [falling, partial curve]"},
      {"compound": "COCCn1c(SCC(=O)c2ccc(C)cc2)nc2cc(C(=O)NC3CCCC3)ccc2c1=O", "Potency": "inconclusive: 18.4 µM [activator, partial curve]"},
      {"compound": "COC(=O)C=C1CCC2C3CCC4=CC(=O)C(Br)CC4(C)C3C(=O)CC12C", "note": "(stereo not given)", "Potency": "inactive"},
      {"compound": "Cc1ccc(CNC(=O)CNC(=S)N(Cc2ccccc2)Cc2ccccc2F)cc1", "Potency": "inconclusive: 25.9 µM [falling, single point]"},
      {"compound": "COc1ccc(NC(=O)c2ccco2)cc1NC(=O)c1ccc(C#N)cc1F", "Potency": "inconclusive: 29.1 µM [falling, single point]"},
      {"compound": "COc1ccc(NC(=O)c2cc3c([nH]c4ccccc43)c(C)n2)cc1", "Potency": "inactive"},
      {"compound": "COc1ccccc1-c1cc(C(=O)N2CCN(c3ccc(F)cc3)CC2)no1", "Potency": "inconclusive: 29.1 µM [falling, single point]"},
      {"compound": "O=C(CSc1nnc(-c2ccccn2)n1-c1ccccc1)Nc1ccc2c(c1)OCO2", "Potency": "inconclusive: 29.1 µM [falling, single point]"},
      {"compound": "COc1cc2c(cc1OC)CN(C(=O)C(CCSC)NS(=O)(=O)c1ccc(C)cc1)CC2", "note": "(stereo not given)", "Potency": "inactive"},
      {"compound": "CC(C)(C)OC(=O)N(CCc1ccccc1)Cc1ccccc1OCc1cccc(NC(=O)/C=C/c2ccccc2)c1", "Potency": "inconclusive: 25.9 µM [activator, single point]"},
      {"compound": "Nc1ccccc1Oc1ccc2ccccc2c1", "Potency": "inactive"},
      {"compound": "O=[N+]([O-])c1cc(C(F)(F)F)ccc1NCCCCNS(=O)(=O)c1ccc(Cl)cc1", "Potency": "inconclusive: 14.6 µM [falling, single point]"},
      {"compound": "CS(=O)(=O)N1CCC(C(=O)N2CCN(C(c3ccccc3)c3ccccc3)CC2)CC1", "Potency": "inactive"},
      {"compound": "Cc1ccc(SSc2cc(C)ccc2N)c(N)c1", "Potency": "inconclusive: 9.2 µM [activator, partial curve, poor fit]"},
      {"compound": "COc1ccc(C(=O)Nc2ccc(OC)c([N+](=O)[O-])c2)cc1Br", "Potency": "active: 20.6 µM"},
      {"compound": "CCCCCn1ccc(=O)c2c(C(F)(F)F)nccc21", "Potency": "inconclusive: 6.51 µM [falling, partial curve, poor fit]"},
      {"compound": "O=C(Nc1ncccc1O)c1ccc2ccccc2c1", "Potency": "inconclusive: 20.6 µM [activator, partial curve]"},
      {"compound": "N#Cc1c(N2CCN(C(=O)c3ccco3)CC2)nc(-c2ccccc2)c2c1CCCC2", "Potency": "active: 18.4 µM"},
      {"compound": "O=C(N/N=C/c1ccncc1)c1ccccn1", "Potency": "inconclusive: 3.66 µM [activator, partial curve]"},
      {"compound": "CCn1c(C)nc2cc(C(=O)N/N=C/c3ccc(O)c(O)c3O)ccc21", "Potency": "inactive"},
      {"compound": "CCC1CN(C(=O)N2CCC(C(=O)NCc3ccccc3OC)CC2)c2cc(C)ccc2O1", "note": "(stereo not given)", "Potency": "inconclusive: 29.1 µM [falling, single point]"},
      {"compound": "CCOC(=O)c1cc(S(=O)(=O)Nc2ccc(OC)cc2OC)cn1C", "Potency": "inconclusive: 2.59 µM [falling, partial curve, poor fit]"},
      {"compound": "CCc1ccc2oc(-c3ccc(C)c(NC(=O)Cc4ccccc4)c3)nc2c1", "Potency": "inconclusive: 6.51 µM [activator, partial curve]"},
      {"compound": "CCCC(=O)Nc1nc(C(=O)OCC)cs1", "Potency": "inconclusive: 0.0041 µM [falling, full curve, poor fit]"},
      {"compound": "O=C(Nc1cccc(Cl)c1)OCCOC(=O)Nc1cccc(Cl)c1", "Potency": "inconclusive: 18.4 µM [falling, partial curve, poor fit]"},
      {"compound": "N#Cc1ccc(CN2CCN(C(=O)c3ccc(S(=O)(=O)N4CCCCCC4)cc3)CC2)cc1", "Potency": "active: 16.4 µM"},
      {"compound": "COc1ccc(CC(C)CC(=O)NCCc2ccc(OC)c(OC)c2)cc1", "note": "(stereo not given)", "Potency": "inactive"},
      {"compound": "c1ccc(COc2ncnc3c2ncn3CCCNCc2ccc3c(c2)OCO3)cc1", "Potency": "inactive"},
      {"compound": "O=C(CCC1CCCN(C(=O)Cc2cccc(F)c2)C1)N1CCN(c2ccccn2)CC1", "note": "(stereo not given)", "Potency": "inconclusive: 25.9 µM [falling, partial curve, poor fit]"},
      {"compound": "CC(C)(C)c1nn(-c2ccccc2)c2[nH]c(=O)c(CNCc3ccco3)cc12", "Potency": "inconclusive: 18.4 µM [falling, single point]"},
      {"compound": "Cc1ccc(CNC(=O)c2ccc(NC3=NC4CS(=O)(=O)CC4S3)cc2)cc1", "note": "(stereo not given)", "Potency": "inconclusive: 23.1 µM [falling, partial curve, poor fit]"}
    ]}
  ]
}
